Test results: the supplement of paper PMC7661543
± gives the standard deviation of the averaged measurements. The effect of the compound repeats well; differences between the knockouts mostly do not.

Test system: BT-20
Assay: relative cell number vs DMSO control (72 h) (% of DMSO); higher = less growth inhibition (more cells)
Procedure: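 QMAP-Seq: a pool of 5 breast cancer cell lines (ZR-75-1, SKBR3, HCC-38, MDA-MB-231, BT-20), each carrying 12 doxycycline-inducible Cas9 sgRNA perturbations (11 knockouts plus non-targeting sgNT), was treated with compounds for 72 h at four 10-fold doses (10 nM-10 uM or 1 nM-1 uM range). Barcodes were amplified and sequenced, and cell number was interpolated from 293T spike-in standard curves. The result is expressed as % of the median of DMSO wells. Two biological replicates.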

COc1ccc(-c2ccc3c(N4CCOCC4)nc(N4C[C@@H](C)O[C@@H](C)C4)nc3n2)cc1CO
Conditions	relative cell number
sgRNA knockout: sgATF3, 10 nM	88.6 ± 10
sgRNA knockout: sgATF3, 100 nM	123 ± 12
sgRNA knockout: sgATF3, 1000 nM	98 ± 16
sgRNA knockout: sgATF3, 10000 nM	52.3 ± 0.92
sgRNA knockout: sgATF4, 10 nM	90.6 ± 2.8
sgRNA knockout: sgATF4, 100 nM	115 ± 15
sgRNA knockout: sgATF4, 1000 nM	89.3 ± 6.5
sgRNA knockout: sgATF4, 10000 nM	43 ± 1.9
sgRNA knockout: sgATF6, 10 nM	90.9 ± 20
sgRNA knockout: sgATF6, 100 nM	106 ± 26
sgRNA knockout: sgATF6, 1000 nM	81.6 ± 12
sgRNA knockout: sgATF6, 10000 nM	43.9 ± 6.5
sgRNA knockout: sgATG7, 10 nM	99.7 ± 5.7
sgRNA knockout: sgATG7, 100 nM	105 ± 21
sgRNA knockout: sgATG7, 1000 nM	94.6 ± 1.4
sgRNA knockout: sgATG7, 10000 nM	46.6 ± 3.6
sgRNA knockout: sgERN1, 10 nM	95.9 ± 7.7
sgRNA knockout: sgERN1, 100 nM	100 ± 4.7
sgRNA knockout: sgERN1, 1000 nM	84.2 ± 24
sgRNA knockout: sgERN1, 10000 nM	45.3 ± 4
sgRNA knockout: sgHSF1, 10 nM	97.5 ± 15
sgRNA knockout: sgHSF1, 100 nM	107 ± 5.3
sgRNA knockout: sgHSF1, 1000 nM	84.3 ± 9.5
sgRNA knockout: sgHSF1, 10000 nM	48.5 ± 0.58
sgRNA knockout: sgHSF2, 10 nM	102 ± 13
sgRNA knockout: sgHSF2, 100 nM	96.6 ± 13
sgRNA knockout: sgHSF2, 1000 nM	77.7 ± 11
sgRNA knockout: sgHSF2, 10000 nM	43.3 ± 1.4
sgRNA knockout: sgKEAP1, 10 nM	96 ± 24
sgRNA knockout: sgKEAP1, 100 nM	99.8 ± 15
sgRNA knockout: sgKEAP1, 1000 nM	82 ± 17
sgRNA knockout: sgKEAP1, 10000 nM	50.1 ± 6
sgRNA knockout: sgNFE2L2, 10 nM	89.7 ± 5.8
sgRNA knockout: sgNFE2L2, 100 nM	96.9 ± 26
sgRNA knockout: sgNFE2L2, 1000 nM	101 ± 16
sgRNA knockout: sgNFE2L2, 10000 nM	54.4 ± 12
sgRNA knockout: sgSLC35F2, 10 nM	94.9 ± 12
sgRNA knockout: sgSLC35F2, 100 nM	121.3 ± 1
sgRNA knockout: sgSLC35F2, 1000 nM	101 ± 22
sgRNA knockout: sgSLC35F2, 10000 nM	45.4 ± 12
sgRNA knockout: sgXBP1, 10 nM	92.9 ± 17
sgRNA knockout: sgXBP1, 100 nM	115 ± 12
sgRNA knockout: sgXBP1, 1000 nM	81.2 ± 19
sgRNA knockout: sgXBP1, 10000 nM	48.5 ± 11

Cc1cnc(Nc2ccc(OCCN3CCCC3)cc2)nc1Nc1cccc(S(=O)(=O)NC(C)(C)C)c1
Conditions	relative cell number
sgRNA knockout: sgATF3, 10 nM	95.9 ± 3.9
sgRNA knockout: sgATF3, 100 nM	109 ± 11
sgRNA knockout: sgATF3, 1000 nM	83.6 ± 8.7
sgRNA knockout: sgATF3, 10000 nM	34.8 ± 2
sgRNA knockout: sgATF4, 10 nM	101 ± 5.9
sgRNA knockout: sgATF4, 100 nM	118 ± 18
sgRNA knockout: sgATF4, 1000 nM	71.9 ± 14
sgRNA knockout: sgATF4, 10000 nM	34.9 ± 4
sgRNA knockout: sgATF6, 10 nM	89.3 ± 20
sgRNA knockout: sgATF6, 100 nM	88.6 ± 19
sgRNA knockout: sgATF6, 1000 nM	81.7 ± 4.2
sgRNA knockout: sgATF6, 10000 nM	28.3 ± 1.8
sgRNA knockout: sgATG7, 10 nM	104 ± 5.2
sgRNA knockout: sgATG7, 100 nM	112 ± 3.9
sgRNA knockout: sgATG7, 1000 nM	77.6 ± 5.5
sgRNA knockout: sgATG7, 10000 nM	34.3 ± 4.1
sgRNA knockout: sgERN1, 10 nM	89.8 ± 5.8
sgRNA knockout: sgERN1, 100 nM	90.5 ± 3.3
sgRNA knockout: sgERN1, 1000 nM	70.8 ± 2.7
sgRNA knockout: sgERN1, 10000 nM	32.1 ± 5.1
sgRNA knockout: sgHSF1, 10 nM	90.3 ± 6.2
sgRNA knockout: sgHSF1, 100 nM	106 ± 11
sgRNA knockout: sgHSF1, 1000 nM	79 ± 6.5
sgRNA knockout: sgHSF1, 10000 nM	35.4 ± 4.4
sgRNA knockout: sgHSF2, 10 nM	100 ± 42
sgRNA knockout: sgHSF2, 100 nM	81.5 ± 7
sgRNA knockout: sgHSF2, 1000 nM	76 ± 8.6
sgRNA knockout: sgHSF2, 10000 nM	35.6 ± 9.9
sgRNA knockout: sgKEAP1, 10 nM	94.9 ± 5.1
sgRNA knockout: sgKEAP1, 100 nM	91.8 ± 18
sgRNA knockout: sgKEAP1, 1000 nM	74.1 ± 12
sgRNA knockout: sgKEAP1, 10000 nM	40.1 ± 1.8
sgRNA knockout: sgNFE2L2, 10 nM	114 ± 36
sgRNA knockout: sgNFE2L2, 100 nM	107 ± 1.8
sgRNA knockout: sgNFE2L2, 1000 nM	77.8 ± 10
sgRNA knockout: sgNFE2L2, 10000 nM	31 ± 2.2
sgRNA knockout: sgSLC35F2, 10 nM	110 ± 13
sgRNA knockout: sgSLC35F2, 100 nM	93.6 ± 4
sgRNA knockout: sgSLC35F2, 1000 nM	72.1 ± 9
sgRNA knockout: sgSLC35F2, 10000 nM	34.6 ± 0.35
sgRNA knockout: sgXBP1, 10 nM	100 ± 7.3
sgRNA knockout: sgXBP1, 100 nM	115 ± 3.4
sgRNA knockout: sgXBP1, 1000 nM	95 ± 6.6
sgRNA knockout: sgXBP1, 10000 nM	37.2 ± 1.6

Cc1cnc(-c2cnc(NCCNc3ccc(C#N)cn3)nc2-c2ccc(Cl)cc2Cl)[nH]1
Conditions	relative cell number
sgRNA knockout: sgATF3, 10 nM	103 ± 18
sgRNA knockout: sgATF3, 100 nM	98.16 ± 0.22
sgRNA knockout: sgATF3, 1000 nM	106 ± 14
sgRNA knockout: sgATF3, 10000 nM	106 ± 2
sgRNA knockout: sgATF4, 10 nM	93.9 ± 4.1
sgRNA knockout: sgATF4, 100 nM	112 ± 10
sgRNA knockout: sgATF4, 1000 nM	94.2 ± 24
sgRNA knockout: sgATF4, 10000 nM	112 ± 10
sgRNA knockout: sgATF6, 10 nM	79.4 ± 0.87
sgRNA knockout: sgATF6, 100 nM	94.97 ± 0.097
sgRNA knockout: sgATF6, 1000 nM	101 ± 27
sgRNA knockout: sgATF6, 10000 nM	101 ± 22
sgRNA knockout: sgATG7, 10 nM	93.5 ± 3.6
sgRNA knockout: sgATG7, 100 nM	94.8 ± 1.3
sgRNA knockout: sgATG7, 1000 nM	110 ± 1
sgRNA knockout: sgATG7, 10000 nM	98.7 ± 1.4
sgRNA knockout: sgERN1, 10 nM	90.06 ± 0.27
sgRNA knockout: sgERN1, 100 nM	97.9 ± 13
sgRNA knockout: sgERN1, 1000 nM	102 ± 6.2
sgRNA knockout: sgERN1, 10000 nM	115 ± 23
sgRNA knockout: sgHSF1, 10 nM	90.4 ± 16
sgRNA knockout: sgHSF1, 100 nM	85.8 ± 6.7
sgRNA knockout: sgHSF1, 1000 nM	103 ± 15
sgRNA knockout: sgHSF1, 10000 nM	110 ± 2
sgRNA knockout: sgHSF2, 10 nM	85.7 ± 4.2
sgRNA knockout: sgHSF2, 100 nM	94.6 ± 8.7
sgRNA knockout: sgHSF2, 1000 nM	106 ± 35
sgRNA knockout: sgHSF2, 10000 nM	130 ± 32
sgRNA knockout: sgKEAP1, 10 nM	97.6 ± 9.1
sgRNA knockout: sgKEAP1, 100 nM	79.9 ± 2.1
sgRNA knockout: sgKEAP1, 1000 nM	100 ± 17
sgRNA knockout: sgKEAP1, 10000 nM	110 ± 23
sgRNA knockout: sgNFE2L2, 10 nM	80.4 ± 14
sgRNA knockout: sgNFE2L2, 100 nM	97.2 ± 8
sgRNA knockout: sgNFE2L2, 1000 nM	99.5 ± 1.7
sgRNA knockout: sgNFE2L2, 10000 nM	121 ± 4.5
sgRNA knockout: sgSLC35F2, 10 nM	98.5 ± 13
sgRNA knockout: sgSLC35F2, 100 nM	103 ± 24
sgRNA knockout: sgSLC35F2, 1000 nM	91 ± 13
sgRNA knockout: sgSLC35F2, 10000 nM	116 ± 35
sgRNA knockout: sgXBP1, 10 nM	106 ± 19
sgRNA knockout: sgXBP1, 100 nM	101 ± 7.9
sgRNA knockout: sgXBP1, 1000 nM	104 ± 10
sgRNA knockout: sgXBP1, 10000 nM	112 ± 6.3
